Source: PubChem BioAssay AID1224830 (NIAID, 2016)
Aim: 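Host factors that control LPS-induced TNF expression in human macrophages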 (primary screen). Cell system: human THP-1 monocytic leukaemia cells, TNF dual-luciferase reporter clone, PMA-differentiated to macrophage-like cells. Reagents: siRNA pool against human genes, 50 nM. Time to read-out: LPS for 4 h, given about 3 days after siRNA transfection. Challenge: bacterial LPS (TLR4 ligand), 10 ng/ml. Detection: 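TNF firefly reporter luminescence divided by renilla, normalised to the plate median, then turned into a robust z-score for each replicate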. Direction: TNF reporter robust z-score: higher = stronger TNF reporter response to LPS. Hit rule: 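a well is active when its z-score exceeds 2.8 or falls below -1.5; control wells carry no call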.
The whole screen tested about 18,000 reagents; shown is an unselected part. Of all reagents, about 2,900 (16%) got an active call. 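Calls are made per well; low scores hint the gene aids the LPS response, high scores that it dampens it.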 Repeated entries: four replicate wells of each siRNA pool.

PRAMEF6 (GeneID 440561) gave TNF reporter robust z-score -0.77; inactive.
PRAMEF6 (GeneID 440561) showed TNF reporter robust z-score -0.32; inactive.
For PRAMEF6 (GeneID 440561) the deposit lists TNF reporter robust z-score -0.39; inactive.
Silencing of PRAMEF6 (GeneID 440561) resulted in: TNF reporter robust z-score -0.26; inactive.
After knock-down of CSNK2B (GeneID 1460), the screen gave TNF reporter robust z-score 2.13; inactive.
After knock-down of CSNK2B (GeneID 1460), the screen gave TNF reporter robust z-score 1.67; inactive.
For CSNK2B (GeneID 1460), the entry reads TNF reporter robust z-score -0.53; inactive.
CSNK2B (GeneID 1460) gave TNF reporter robust z-score 1.94; inactive.
CCDC116 (GeneID 164592) gave TNF reporter robust z-score 0.86; inactive.
CCDC116 (GeneID 164592) showed TNF reporter robust z-score -0.2; inactive.
Knock-down of CCDC116 (GeneID 164592) resulted in: TNF reporter robust z-score 0.12; inactive.
CCDC116 (GeneID 164592) scored TNF reporter robust z-score 0.22; inactive.
NEURL3 (GeneID 93082) showed TNF reporter robust z-score 0.57; inactive.
For NEURL3 (GeneID 93082), the entry reads TNF reporter robust z-score 0.71; inactive.
Silencing of NEURL3 (GeneID 93082) gave: TNF reporter robust z-score 0.42; inactive.
With knock-down of NEURL3 (GeneID 93082), the record shows TNF reporter robust z-score -1.17; inactive.

Next reagents follow:
NUP35 (GeneID 129401) gave TNF reporter robust z-score 0.87; inactive.
NUP35 (GeneID 129401) scored TNF reporter robust z-score 0.13; inactive.
For NUP35 (GeneID 129401), the entry reads TNF reporter robust z-score 0.5; inactive.
Knock-down of NUP35 (GeneID 129401) resulted in: TNF reporter robust z-score 0.77; inactive.
AMELY (GeneID 266) gave TNF reporter robust z-score -0.84; inactive.
Against AMELY (GeneID 266), the entry reads TNF reporter robust z-score 0.19; inactive.
Against AMELY (GeneID 266), the values are TNF reporter robust z-score -0.72; inactive.
AMELY (GeneID 266) gave TNF reporter robust z-score 0.08; inactive.
SNAPC4 (GeneID 6621) gave TNF reporter robust z-score -0.04; inactive.
Against SNAPC4 (GeneID 6621), the entry reads TNF reporter robust z-score 0.76; inactive.
Against SNAPC4 (GeneID 6621) the deposit lists TNF reporter robust z-score 0.65; inactive.
For SNAPC4 (GeneID 6621), the entry reads TNF reporter robust z-score 0.09; inactive.
With knock-down of XKR3 (GeneID 150165), the screen gave TNF reporter robust z-score -0.3; inactive.
Depletion of XKR3 (GeneID 150165) came out at: TNF reporter robust z-score 0.14; inactive.
XKR3 (GeneID 150165) showed TNF reporter robust z-score -0.55; inactive.
After knock-down of XKR3 (GeneID 150165), the record shows TNF reporter robust z-score -0.01; inactive.
